{"source": "the supplement of paper PMC11348887", "note": "Where a name gives a salt, the structure may show the parent alone. Some of the results follow. Small differences around the control level are noise."}
{"system": "hPSC-derived cortical neurons (WA09)", "test": "nucleus area z-score vs screen plate; higher = larger nuclei (more mature)", "details": "5 µM; treatment: days 7-14 after plating, readout day 21"}
{"smiles": "O=C1NC(=O)C(c2ccccc2[N+](=O)[O-])=C1Nc1ccc(O)c(Cl)c1", "nucleus area z-score": 0.0596}
{"smiles": "CCCOc1ccc(CCc2nc3cc(-c4c(C)noc4C)ccc3n2CCN2CCOCC2)cc1", "nucleus area z-score": -0.367}
{"smiles": "C[C@]12CCC(=O)C=C1[C@@H]1C[C@@H]1[C@H]1[C@@H]3[C@@H]4C[C@@H]4[C@@]4(CCC(=O)O4)[C@@]3(C)CC[C@@H]12", "note": "[Drospirenone]", "nucleus area z-score": 0.557}
{"smiles": "CCOC(=O)c1cnc2ccc(-c3cncc(NS(=O)(=O)c4ccccc4)c3)cn12", "nucleus area z-score": -0.0568}
{"smiles": "OC[C@H]1O[C@@H](c2ccc(Cl)c(Cc3ccc(O[C@H]4CCOC4)cc3)c2)[C@H](O)[C@@H](O)[C@@H]1O", "nucleus area z-score": -0.247}
{"smiles": "CCCCOc1ccc(C(=O)Nc2ccc(F)cc2F)cc1", "nucleus area z-score": 0.264}
{"smiles": "Cc1cc2c(C(N)=O)cccc2n1-c1nc2c(c(NCc3ccccc3)n1)COCC2", "nucleus area z-score": -17.1}
{"smiles": "CC(C)(Oc1ccc(C(=O)c2ccc(Cl)cc2)cc1)C(=O)O", "note": "[Fenofibric acid]", "nucleus area z-score": 0.451}
{"smiles": "CC(C)c1c(C(=O)Nc2ccccc2)c(-c2ccccc2)c(-c2ccc(F)cc2)n1CC[C@@H](O)C[C@@H](O)CC(=O)O", "note": "[Atorvastatin Calcium]", "nucleus area z-score": -4.02}
{"smiles": "Nc1nc(Nc2ccc3c(c2)CCC(N2CCCC2)CC3)nn1-c1cc2c(nn1)-c1ccccc1CCC2", "note": "(stereo not given)", "nucleus area z-score": -10.2}
{"smiles": "Cc1cc2c(cc1CC(=O)c1sccc1S(=O)(=O)Nc1onc(C)c1Cl)OCO2", "note": "[Sitaxentan sodium]", "nucleus area z-score": 2.41}
{"smiles": "CCCCOc1ccc(CC(=O)NO)cc1", "note": "[Bufexamac]", "nucleus area z-score": -0.318}
{"smiles": "O=C(O)C(Cc1ccccc1[N+](=O)[O-])=NNc1nc(-c2ccc(Cl)c(Cl)c2)cs1", "note": "(mixture of isomers)", "nucleus area z-score": -0.0577}
{"smiles": "CCC(CC)CC1(C(=O)Nc2ccccc2SC(=O)C(C)C)CCCCC1", "nucleus area z-score": 1.75}
{"smiles": "CCN(c1cc(C#CCN2CCOCC2)cc(C(=O)NCc2c(C)cc(C)[nH]c2=O)c1C)[C@H]1CC[C@H](N(C)CCOC)CC1", "nucleus area z-score": 1.27}
{"smiles": "Cc1ncc(-c2ccnc(Nc3ccc(S(C)(=O)=O)cc3)n2)n1C(C)C", "nucleus area z-score": -2.34}
{"smiles": "C#C[C@]1(O)CC[C@H]2[C@@H]3CCC4=CC(=O)CC[C@@H]4[C@H]3C(=C)C[C@@]21CC", "note": "[Etonogestrel]", "nucleus area z-score": -0.373}
{"smiles": "CNCCC(Oc1ccc(C(F)(F)F)cc1)c1ccccc1", "note": "(stereo not given) [Fluoxetine HCl]", "nucleus area z-score": -0.283}
{"smiles": "CN(C(=O)CN(CCO)CC(=O)N(C)C(C)(C)Cc1ccccc1)C(C)(C)Cc1ccccc1", "note": "[Oxethazaine]", "nucleus area z-score": -2.56}
{"smiles": "COc1ccc(C(=O)Nc2sc3c(c2C(N)=O)CCCC3)cc1OC", "nucleus area z-score": 1.27}
{"smiles": "CC#CC(=O)N1CCC[C@H]1c1nc(-c2ccc(C(=O)Nc3ccccn3)cc2)c2c(N)nccn12", "note": "[Acalabrutinib (ACP-196)]", "nucleus area z-score": 1.27}
{"smiles": "OC[C@H]1O[C@@H](Oc2cc(O)cc(/C=C/c3ccc(O)cc3)c2)[C@H](O)[C@@H](O)[C@@H]1O", "note": "[Polydatin]", "nucleus area z-score": -0.292}
{"smiles": "CCCc1cc(-c2nc(-c3ccc(C)cc3)cs2)ccn1", "note": "[Fatostatin HBr]", "nucleus area z-score": 0.811}
{"smiles": "COc1ccc(-n2nc(C(N)=O)c3c2C(=O)N(c2ccc(N4CCCCC4=O)cc2)CC3)cc1", "note": "[Apixaban]", "nucleus area z-score": -0.0838}
{"smiles": "C[C@]12C=CC(=O)C=C1CC[C@H]1[C@@H]3C[C@@H](O)[C@](O)(C(=O)CO)[C@@]3(C)C[C@H](O)[C@@]12F", "note": "[Triamcinolone]", "nucleus area z-score": 0.0292}
{"smiles": "Nc1nc(Nc2ccc(S(N)(=O)=O)cc2)nn1C(=O)c1c(F)cccc1F", "nucleus area z-score": -2.34}
{"smiles": "CC(C)(O)CC[C@@H](O)[C@](C)(O)[C@H]1CC[C@@]2(O)C3=CC(=O)[C@@H]4C[C@@H](O)[C@@H](O)C[C@]4(C)[C@H]3CC[C@]12C", "note": "[20-Hydroxyecdysone]", "nucleus area z-score": -0.482}
{"smiles": "CC(C)NCC(O)c1ccc(O)c(O)c1", "note": "(stereo not given) [Isoprenaline HCl]", "nucleus area z-score": 0.617}
{"smiles": "Cc1nc2ccc(NC(=O)Nc3ccnc4cccnc34)cc2o1", "nucleus area z-score": -0.46}
{"smiles": "NC(=O)c1ncn([C@@H]2O[C@H](CO)[C@@H](O)[C@H]2O)c1N", "note": "[Acadesine]", "nucleus area z-score": 1.05}
{"smiles": "COc1c(C)cnc(Cn2cnc3c(Cl)nc(N)nc32)c1C", "nucleus area z-score": -2}
{"smiles": "Cc1ccc(NC(=S)NNc2c([N+](=O)[O-])cc(C(F)(F)F)cc2[N+](=O)[O-])cc1Cl", "nucleus area z-score": -0.0955}
{"smiles": "Cc1nc2c(-c3cnc(N)nc3)nc(N3CCOCC3)nc2n1C(C)C", "nucleus area z-score": -6.12}
{"smiles": "CNC(=O)c1ccccc1Sc1ccc2c(/C=C/c3ccccn3)n[nH]c2c1", "note": "[Axitinib]", "nucleus area z-score": -1.22}
{"smiles": "CC[C@H](C)C(=O)O[C@H]1C[C@@H](C)C=C2C=C[C@H](C)[C@H](CC[C@@H]3C[C@@H](O)CC(=O)O3)[C@H]21", "note": "[Lovastatin]", "nucleus area z-score": -1.8}
